We go through one substance from article PMC10907978.

For the assay, the target named is HIF1α (hypoxia inducible factor-1 alpha), endogenous (human (endogenous in HepG2 and PLC/PRF/5)) (UniProt Q16665). As to the kind of experiment: co-IP; HCC cells transfected with control or Flag-CDK5 plasmids (dose series); endogenous HIF1α pulled down, western blot.

Results are given in words; binding and its absence hold for the method and conditions named. Binding seen in cells or lysates may run through a third protein. Some results given as binding are weak or reduced against the parent protein; the word gives no strength.

For “Flag-CDK5 (cyclin dependent kinase 5) (from UniProt Q00535 1-292) (enzyme)”, the binding entry is given as “binds”.
